The text below walks through data of paper PMC10163288.

The other results are listed elsewhere or left out.

To fix the notation:
B1: il2ra_site2_2erj_normal_mot_c2bf78bdce995293a161f7082e24b401_0001_af2_000000082_0001_17_32_H_._HHH_b2_05903_af2_0001_0000100003_0000001_0 (protein)
chain: SSSSNEELKELYELANELMHAIARGDEELVEEIFEKIEELAKKLDSENARELAESLLRLQNSSSS
B2: il2ra_site1_1z92_sap_22_mot_HHH_b1_05516_af2_000000202_0001_21_38_H_._HHH_b2_07203_0001_0000400022_0000001_0_0001 (protein)
chain: DDEAARYDLERSLKLGIPPRDVVMAVLRALERFLGDPEEALEVIERAIKLLNDPELEEVVEKLKP
B3: il2ra_site1_3nfp_normal_mot_7cda4bd6c75d31e303a515fbb7282898_0001_1_000000177_0001_18_32_H_._9b841c8fe2e6d1e24304b827c5c38554_0001_1_af2_0001_0000300040_0000001 … (protein)
chain: TDEEREEKLLERIKKEGDPELARELLELLEELLGDPVEAFHALSHLLARAGLSVEEVARLLKLAA
B4: il2ra_site2_2erj_sap_20_mot_c2bf78bdce995293a161f7082e24b401_0001_af2_000000000_0001_17_32_H_._HHH_b2_04009_af2_0001_0000600010_0000001_0_0001 (protein)
chain: SSSDEEEEKAKEALKEAEELLERGDPEEAEKVLREAATLVWRLNDFEAWARLAELLRRIAKSSSS
B5: il2ra_site2_3nfp_sap_25_mot_HHH_b2_06150_000000217_0001_39_53_H_._HHH_b2_05014_af2_0001_0000300011_0000001_0_0001 (protein)
chain: DEVSEVIWRLREEGDPELAFLLFAVRADVLYKHDPELEEELEKLIELAERDPEKAKELAEELLRR
B6: il2ra_site1_2b5i_sap_12_mot_HHH_b1_05282_000000062_0001_1_18_H_._HHH_b2_01219_0001_0000300021_0000001_0_0001 (protein)
chain: SSSSDEEVREQVERLIEEAEKALEKGNRLEAMRILDEAARLADENDDEELSKRLQELAREISSSS
B7: il2ra_site1_2b5i_sap_12_mot_HHH_b2_01822_000000237_0001_40_54_H_._HHH_b2_05962_0001_0000300010_0000001_1_0001_af2pred_dldesign_0_af2pred (protein)
chain: SSSSSSPAELAREALELFLEAEKIEDEEERKAKLEKALELAKKGKNNSLVKMLEYALSELSSSSS
B8: il2ra_site2_2erj_normal_mot_HHH_b1_03107_000000098_0001_39_52_H_._HHH_b2_06061_0001_0000100001_0000001_0 (protein)
chain: SSSSSDEKEVWEEVAELLARAAHIKDDEEVRELLEEAERLARELNSPFLERYVEYVRRDHSSSSS
B9: il2ra_site1_2b5i_sap_10_mot_HHH_b1_06743_af2_000000095_0001_1_19_H_._HHH_b2_02247_0001_0000400006_0000001_0_0001 (protein)
chain: SSSSSDEEELDEAFREVSRLWREGNPEEARKLLEEAIELAEELGDEAAQRDLRRFLEMLNSSSSS
B10: il2ra_site1_1z92_sap_21_mot_HHH_b2_07822_af2_000000141_0001_42_54_H_._HHH_b1_05714_af2_0001_0000200004_0000001_0_0001 (protein)
chain: DLEEKIRKVAEELGIPPEDLEAFEYDLEAAERLFGDPEHALKALLMAAEKAGDENIFELAELVLK
B11: il2ra_site1_3nfp_normal_mot_HHH_b1_01335_af2_000000258_0001_39_53_H_._HHH_b2_05319_0001_0000200014_0000001_1_af2pred_0001_af2pred_swapped (protein)
chain: SSSSSSEVEERVEELLEEARHVDLREAEELLREAQRLAREYNNEELLELVFKVMRELAKSSSSSS
B12: il2ra_site1_3nfp_sap_12_mot_HHH_b2_05809_000000010_0001_1_20_H_._HHH_b1_02217_0001_0000300010_0000001_0_0001 (protein)
chain: SSSSSERAEEFWRLIRELIEAQKEGDEEKAEELAELLKELAKERNDEFDEKAVERLLKLLRSSSS
B13: il2ra_site1_1z92_normal_mot_4eadacea29f80ea3a0abedbb5e3c3690_0001_af2_000000154_0001_35_49_H_._HEEHE_0610_af2_0001_0000100007_0000001_0_af2pred_0001_af2pred (protein)
chain: SEEEVIEEDIERVARLAGVPSVEVEVSNNTIEVTVRGDDDRARTLAKIVEKLAKAADLEVHVEIE
B14: il2ra_site2_3nfp_sap_14_mot_HHH_b1_03213_af2_000000225_0001_42_59_H_._HHH_b2_04641_0001_0000200010_0000001_0_0001 (protein)
chain: SSSSKAEEYVRIALELAEEAIEDGDPESARRMLHIALLAAEDNGDEELAEEIERLLEELGSSSSS
B15: il2ra_site2_2erj_sap_27_mot_HHH_b1_00941_000000051_0001_45_58_H_._HHH_b2_05721_0001_0000800023_0000001_0_0001 (protein)
chain: SSSSSEEVEELLEEAEKAAKEGNLAEALRIIHEALRVAEELNDPELLREVNEVAQKLMELSSSSS
B16: il2ra_site1_3nfp_normal_mot_HHH_b1_06396_000000212_0001_1_19_H_._HEEHE_3173_0001_0000500020_0000001_0 (protein)
chain: SADEYLEEALEKDAERLGVPSIEVTIRNGTLHVTIKGNDEAAEEAEQLIEFFARAAKFPVEIRVE
B17: il2ra_site1_3nfp_normal_mot_HHH_b2_03135_af2_000000097_0001_42_55_H_._HEEHE_2706_0001_0000100001_0000001_0 (protein)
chain: NEEEIVERLIKQQAESAGVPHVEVEIHNGTFEVTVEGDDEAARRVLELAEEAAEQLGIPIHVETR
B18: il2ra_site2_3nfp_sap_24_mot_0136b98644bc9a8eb58b95019b738ebb_0001_1_000000071_0001_1_13_H_._HHH_b1_00442_af2_0001_0000600028_0000001_0_0001_af2pred_0001_af2pred … (protein)
chain: SSSSDHEKFALRALLLEIKIAIESGDEERVKKAIELLRKVIEKLNDEEMEEELERLERELSSSSS
B19: il2ra_site2_3nfp_sap_21_mot_HHH_b2_08209_000000146_0001_1_18_H_._5511cb2176c827d1feb3066af2f534d5_0001_af2_0001_0000100005_0000001_1_0001 (protein)
chain: SSSSDLEEEVERLLEEAEHIEDPEELERLLFEAASLAAEANDRELYAAAMEIMWELIEKNSSSSS

Usually apparent Kd stands for a dissociation constant that holds for the conditions of the assay.

The target of the test is il2ra, P01589. The test is described as follows: yeast display titration.
B1: the “apparent Kd” value is “inactive: no binding seen”.
Take B2: the “apparent Kd” value is “inactive: no binding seen”.
For the molecule B3, the apparent Kd is inactive: > 1440 nM.
For B4, the “apparent Kd” value was “inactive: no binding seen”.
Next, B5: “inactive: no binding seen”; B6: “inactive: no binding seen”; B7: “inactive: no binding seen”.
To B8 belongs “inactive: no binding seen”; to B9, “inactive: no binding seen”.
Next, B10: “inactive: no binding seen”.
Take B11: the “apparent Kd” value is “inactive: no binding seen”.
Next, B12: “inactive: no binding seen”; B13: “inactive: no binding seen”.
Next, B14: “inactive: no binding seen”; B15: “inactive: no binding seen”.
Turning to B16, the “apparent Kd” value was “inactive: no binding seen”.
To B17 belongs “inactive: no binding seen”.
B18: the “apparent Kd” value is “inactive: no binding seen”.
As for B19, the “apparent Kd” value was “inactive: no binding seen”.
